Strings that start with PEPTIDE1 are HELM notation: dots part the residues, brackets hold end groups and non-standard residues.

From publication PMC10451648 (Antibiotics, 2023) come the findings set out here.

The data set in a line: general procedure: Fmoc solid-phase peptide synthesis; Rink Amide Pro Tide Resin (LL) (CEM), loading 0.2 mmol/g; DIC / Oxyma Pure. Particulars: whole synthesis, analytical HPLC, InertSustainSwift C18, 0.1% TFA water/MeCN, 10-90% B over 30 min, scale of the general procedure 250 mg resin (loading: 0.2 mmol/g).
“PEPTIDE1{G.I.K.K.F.L.K.S.[Aib].K.K.F.V.K.[Aib].F.K.[am]}$$$$V2.0”: the “final HPLC purity” value is 99.9%.

For the substance “PEPTIDE1{G.I.K.K.F.L.K.S.[XAibh1ed408].K.K.F.V.K.[XAibh1ed408].F.[XApih6328a3].[am]}$$$$V2.0”, the “final HPLC purity” value turned out to be 99.3%.

Take “PEPTIDE1{G.I.K.K.F.L.K.S.[XAibh1ed408].K.K.F.V.[XApih6328a3].[XAibh1ed408].F.K.[am]}$$$$V2.0”: the “final HPLC purity” value turned out to be 98.7%.

As for “PEPTIDE1{G.I.K.K.F.L.K.S.[XAibh1ed408].K.[XApih6328a3].F.V.K.[XAibh1ed408].F.K.[am]}$$$$V2.0”, the “final HPLC purity” value is on record as 98.9%.

Turning to “PEPTIDE1{G.I.K.K.F.L.K.S.[XAibh1ed408].[XApih6328a3].K.F.V.K.[XAibh1ed408].F.K.[am]}$$$$V2.0”, the “final HPLC purity” value is 98.3%.

With “PEPTIDE1{G.I.K.K.F.L.[XApih6328a3].S.[XAibh1ed408].K.K.F.V.K.[XAibh1ed408].F.K.[am]}$$$$V2.0”, the “final HPLC purity” value was 99.6%.

In the case of “PEPTIDE1{G.I.K.[XApih6328a3].F.L.K.S.[XAibh1ed408].K.K.F.V.K.[XAibh1ed408].F.K.[am]}$$$$V2.0”, the “final HPLC purity” value is reported as 99.6%.

In the case of “PEPTIDE1{G.I.[XApih6328a3].K.F.L.K.S.[XAibh1ed408].K.K.F.V.K.[XAibh1ed408].F.K.[am]}$$$$V2.0”, the “final HPLC purity” value turned out to be 97.8%.
